Experimental data reported in patent US10266806B2, “Stem cell-derived hepatocytes in co-culture and uses thereof” (Colorado State University Research Foundation, priority 2014, dated 2019).
Some of these results come from one statement about several compounds together.

Test system: CYP2C9
Conditions: range stated jointly for both drugs and for 3A4, 2C9

CCC1(c2ccccc2)C(=O)NC(=O)NC1=O [phenobarbital]
fold induction of CYP2C9 transcripts in iMPCCs relative to PHH-MPCCs: 60-130% | induction in CYP2C9 functions in iMPCCs relative to PHH-MPCCs: 44-79%
